According to patent US20180133220A1, “COMPOUNDS FOR USE IN TREATING ACUTE CORONARY SYNDROME AND RELATED CONDITIONS” (Vitae Pharmaceuticals, Inc., priority 2014, published 2018):
For at least one compound, name, drawing or mass did not settle the structure.

System: Apolipoprotein E knockout (ApoE−/−) mice
Test: experimental mouse model of accelerated atherosclerosis (ApoE−/− mice, high fat diet, carotid artery ligation)
Format: in vivo
Settings: ApoE−/− mice on high fat diet, left common carotid artery ligated, all doses, LC/MS/MS

With `CC(C)[C@@H]1c2nc3cc(CO)c(S(C)(=O)=O)cc3n2CCN1c1ncc(C(C)(C)O)c(C(F)(F)F)n1` (single isomer, unassigned) [E7a] the “cholesterol esters (carotid artery cholesterol ester content)” value (orally twice a day for two weeks from ligation surgery, FIG. 1A) was “significant, dose-dependent decrease” and the “vascular inflammation (carotid artery FDG-6-phosphate, indirect marker)” value (orally twice a day for two weeks, FIG. 1B, p<0.01 vs vehicle) was “diminished”.
